No constants are given. Whether binding was seen depends on the method and setting. In cells and extracts the contact can be indirect. Some results given as binding are weak or reduced against the parent protein; the word gives no strength. Where a sequence is shown, tags or fusion partners need not be part of it.
T1: Hxt7-NCitr (Hxt7 fused to the N-terminal part of Citrine) (S. cerevisiae) (UniProt P39004)
T1 sequence: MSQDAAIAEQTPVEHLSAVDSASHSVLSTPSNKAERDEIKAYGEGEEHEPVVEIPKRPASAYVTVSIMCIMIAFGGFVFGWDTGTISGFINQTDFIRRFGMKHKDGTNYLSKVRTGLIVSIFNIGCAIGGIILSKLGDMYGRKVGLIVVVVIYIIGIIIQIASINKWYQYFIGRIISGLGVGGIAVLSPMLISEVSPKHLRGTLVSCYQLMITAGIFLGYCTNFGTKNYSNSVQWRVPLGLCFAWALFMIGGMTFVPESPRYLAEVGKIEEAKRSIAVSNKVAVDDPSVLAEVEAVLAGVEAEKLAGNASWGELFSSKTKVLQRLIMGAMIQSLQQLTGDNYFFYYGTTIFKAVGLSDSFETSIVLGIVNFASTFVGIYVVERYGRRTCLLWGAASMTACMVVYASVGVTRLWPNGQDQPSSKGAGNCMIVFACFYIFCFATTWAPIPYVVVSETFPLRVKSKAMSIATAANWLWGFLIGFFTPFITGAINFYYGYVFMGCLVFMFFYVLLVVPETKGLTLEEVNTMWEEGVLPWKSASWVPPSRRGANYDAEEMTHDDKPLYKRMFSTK

T2: GST-Hxk2 (GST-labeled yeast hexokinase Hxk2) (S. cerevisiae) (UniProt P04807)
T2 sequence: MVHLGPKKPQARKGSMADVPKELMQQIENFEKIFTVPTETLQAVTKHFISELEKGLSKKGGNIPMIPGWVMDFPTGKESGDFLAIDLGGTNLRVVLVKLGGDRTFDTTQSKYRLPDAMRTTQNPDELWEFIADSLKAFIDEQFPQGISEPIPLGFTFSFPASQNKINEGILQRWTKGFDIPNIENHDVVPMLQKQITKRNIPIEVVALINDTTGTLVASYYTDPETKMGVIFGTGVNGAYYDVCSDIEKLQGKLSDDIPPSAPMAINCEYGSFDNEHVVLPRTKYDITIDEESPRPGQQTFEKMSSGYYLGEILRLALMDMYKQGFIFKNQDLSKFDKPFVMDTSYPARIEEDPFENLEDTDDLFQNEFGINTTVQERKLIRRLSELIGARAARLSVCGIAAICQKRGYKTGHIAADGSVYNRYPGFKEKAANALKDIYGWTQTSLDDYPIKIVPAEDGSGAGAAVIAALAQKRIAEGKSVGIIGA


Columns and labels:
[1] = target: T1, Hxt7-NCitr (Hxt7 fused to the N-terminal part of Citrine) (S. cerevisiae); assay: split reporter; BiFC with split Citrine halves (NCitr 1-154, CCitr 155-236) in living yeast cells, confocal fluorescence microscopy; cells (pre)grown on YP with 325 mM glycerol and 430 mM ethanol
[2] = target: T2, GST-Hxk2 (GST-labeled yeast hexokinase Hxk2) (S. cerevisiae); assay: pull-down; GST-Hxk2 on Glutathione Sepharose 4B beads (25 µL) incubated with about 1 mg yeast protein extract overnight at 4°C; lysis buffer 50 mM Tris-HCl pH 7.5, 150 mM NaCl, 5% glycerol, 1 mM EDTA, 2.5 mM MgCl2, 1% Triton X-100; three washes; Hxt7-HA detected by anti-HA western blot; only the target purified

| Binder | binding [1] | binding [2] |
| --- | --- | --- |
| Hxk1-CCitr (Hxk1 fused to the C-terminal part of Citrine) (enzyme, UniProt P04806 1-485) MVHLGPKKPQARKGSMADVPKELMDEIHQLEDMFTVDSETLRKVVKHFIDELNKGLTKKGGNIPMIPGWVMEFPTGKESGNYLAIDLGGTNLRVVLVKLSGNHTFDTTQSKYKLPHDMRTTKHQEELWSFIADSLKDFMVEQELLNTKDTLPLGFTFSYPASQNKINEGILQRWTKGFDIPNVEGHDVVPLLQNEISKRELPIEIVALINDTVGTLIASYYTDPETKMGVIFGTGVNGAFYDVVSDIEKLEGKLADDIPSNSPMAINCEYGSFDNEHLVLPRTKYDVAVDEQSPRPGQQAFEKMTSGYYLGELLRLVLLELNEKGLMLKDQDLSKLKQPYIMDTSYPARIEDDPFENLEDTDDIFQKDFGVKTTLPERKLIRRLCELIGTRAARLAVCGIAAICQKRGYKTGHIAADGSVYNKYPGFKEAAAKGLRDIYGWTGDASKDPITIVPAEDGSGAGAAVIAALSEKRIAEGKSLGIIGA | binds | – |
| Glk1-CCitr (glucokinase Glk1 fused to the C-terminal part of Citrine) (enzyme, UniProt P17709 1-500) MSFDDLHKATERAVIQAVDQICDDFEVTPEKLDELTAYFIEQMEKGLAPPKEGHTLASDKGLPMIPAFVTGSPNGTERGVLLAADLGGTNFRICSVNLHGDHTFSMEQMKSKIPDDLLDDENVTSDDLFGFLARRTLAFMKKYHPDELAKGKDAKPMKLGFTFSYPVDQTSLNSGTLIRWTKGFRIADTVGKDVVQLYQEQLSAQGMPMIKVVALTNDTVGTYLSHCYTSDNTDSMTSGEISEPVIGCIFGTGTNGCYMEEINKITKLPQELRDKLIKEGKTHMIINVEWGSFDNELKHLPTTKYDVVIDQKLSTNPGFHLFEKRVSGMFLGEVLRNILVDLHSQGLLLQQYRSKEQLPRHLTTPFQLSSEVLSHIEIDDSTGLRETELSLLQSLRLPTTPTERVQIQKLVRAISRRSAYLAAVPLAAILIKTNALNKRYHGEVEIGCDGSVVEYYPGFRSMLRHALALSPLGAEGERKVHLKIAKDGSGVGAALCALVA | binds | – |

Now from value to binder:

| binding [1] | binding [2] | Binder |
| --- | --- | --- |
| binds | – | Hxk2-CCitr (Hxk2 fused to the C-terminal part of Citrine) (enzyme, UniProt P04807 1-486) MVHLGPKKPQARKGSMADVPKELMQQIENFEKIFTVPTETLQAVTKHFISELEKGLSKKGGNIPMIPGWVMDFPTGKESGDFLAIDLGGTNLRVVLVKLGGDRTFDTTQSKYRLPDAMRTTQNPDELWEFIADSLKAFIDEQFPQGISEPIPLGFTFSFPASQNKINEGILQRWTKGFDIPNIENHDVVPMLQKQITKRNIPIEVVALINDTTGTLVASYYTDPETKMGVIFGTGVNGAYYDVCSDIEKLQGKLSDDIPPSAPMAINCEYGSFDNEHVVLPRTKYDITIDEESPRPGQQTFEKMSSGYYLGEILRLALMDMYKQGFIFKNQDLSKFDKPFVMDTSYPARIEEDPFENLEDTDDLFQNEFGINTTVQERKLIRRLSELIGARAARLSVCGIAAICQKRGYKTGHIAADGSVYNRYPGFKEKAANALKDIYGWTQTSLDDYPIKIVPAEDGSGAGAAVIAALAQKRIAEGKSVGIIGA |
| – | binds | Hxt7-HA (HA-labeled yeast Hxt7 glucose carrier) (protein, UniProt P39004 1-570) MSQDAAIAEQTPVEHLSAVDSASHSVLSTPSNKAERDEIKAYGEGEEHEPVVEIPKRPASAYVTVSIMCIMIAFGGFVFGWDTGTISGFINQTDFIRRFGMKHKDGTNYLSKVRTGLIVSIFNIGCAIGGIILSKLGDMYGRKVGLIVVVVIYIIGIIIQIASINKWYQYFIGRIISGLGVGGIAVLSPMLISEVSPKHLRGTLVSCYQLMITAGIFLGYCTNFGTKNYSNSVQWRVPLGLCFAWALFMIGGMTFVPESPRYLAEVGKIEEAKRSIAVSNKVAVDDPSVLAEVEAVLAGVEAEKLAGNASWGELFSSKTKVLQRLIMGAMIQSLQQLTGDNYFFYYGTTIFKAVGLSDSFETSIVLGIVNFASTFVGIYVVERYGRRTCLLWGAASMTACMVVYASVGVTRLWPNGQDQPSSKGAGNCMIVFACFYIFCFATTWAPIPYVVVSETFPLRVKSKAMSIATAANWLWGFLIGFFTPFITGAINFYYGYVFMGCLVFMFFYVLLVVPETKGLTLEEVNTMWEEGVLPWKSASWVPPSRRGANYDAEEMTHDDKPLYKRMFSTK |

From PMC11374660, “The novel family of Warbicin® compounds inhibits glucose uptake both in yeast and human cells and restrains cancer cell proliferation” (Frontiers in Oncology, 2024)
